One molecule from paper doi:10.1101/484709 can be followed below.

Amino acid sequences for entries named in this document (tags omitted).
UniProt Q99558: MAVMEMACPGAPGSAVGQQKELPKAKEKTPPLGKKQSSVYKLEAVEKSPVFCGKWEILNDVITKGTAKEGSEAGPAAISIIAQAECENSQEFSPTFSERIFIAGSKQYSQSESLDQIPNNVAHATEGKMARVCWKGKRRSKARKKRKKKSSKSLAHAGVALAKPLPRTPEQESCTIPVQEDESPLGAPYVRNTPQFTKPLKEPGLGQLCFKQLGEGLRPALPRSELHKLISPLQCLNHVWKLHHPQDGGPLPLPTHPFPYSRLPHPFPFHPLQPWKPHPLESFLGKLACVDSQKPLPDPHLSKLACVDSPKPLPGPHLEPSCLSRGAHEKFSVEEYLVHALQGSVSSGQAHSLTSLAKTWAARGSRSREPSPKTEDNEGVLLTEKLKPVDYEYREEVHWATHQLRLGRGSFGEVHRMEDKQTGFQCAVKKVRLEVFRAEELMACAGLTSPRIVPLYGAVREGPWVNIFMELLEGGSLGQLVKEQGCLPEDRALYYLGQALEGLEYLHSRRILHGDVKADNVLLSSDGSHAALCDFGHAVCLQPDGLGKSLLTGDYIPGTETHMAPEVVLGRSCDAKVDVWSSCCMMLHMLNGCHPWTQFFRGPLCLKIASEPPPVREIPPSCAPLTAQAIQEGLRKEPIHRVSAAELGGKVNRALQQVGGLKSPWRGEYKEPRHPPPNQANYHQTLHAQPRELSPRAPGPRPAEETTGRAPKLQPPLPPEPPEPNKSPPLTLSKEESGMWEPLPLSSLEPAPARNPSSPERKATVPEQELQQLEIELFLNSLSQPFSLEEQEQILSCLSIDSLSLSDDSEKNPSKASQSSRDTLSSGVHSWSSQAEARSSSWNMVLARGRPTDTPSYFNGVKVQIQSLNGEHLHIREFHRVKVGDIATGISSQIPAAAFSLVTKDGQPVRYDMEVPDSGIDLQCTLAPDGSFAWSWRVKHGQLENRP

Results are given in words; binding and its absence hold for the method and conditions named. In cells and extracts the contact can be indirect. Some entries that bind do so weakly or less than the wild type.

The target of the assay is NF-kappa-B-inducing kinase (human (endogenous in Jurkat cells and PBMC)) (UniProt Q99558). The experiment in a line: co-IP.

B1: FK506-binding protein 51 (protein, UniProt Q13451 1-457)
chain: MTTDEGAKNNEESPTATVAEQGEDITSKKDRGVLKIVKRVGNGEETPMIGDKVYVHYKGKLSNGKKFDSSHDRNEPFVFSLGKGQVIKAWDIGVATMKKGEICHLLCKPEYAYGSAGSLPKIPSNATLFFEIELLDFKGEDLFEDGGIIRRTKRKGEGYSNPNEGATVEIHLEGRCGGRMFDCRDVAFTVGEGEDHDIPIGIDKALEKMQREEQCILYLGPRYGFGEAGKPKFGIEPNAELIYEVTLKSFEKAKESWEMDTKEKLEQAAIVKEKGTVYFKGGKYMQAVIQYGKIVSWLEMEYGLSEKESKASESFLLAAFLNLAMCYLKLREYTKAVECCDKALGLDSANEKGLYRRGEAQLLMNEFESAKGDFEKVLEVNPQNKAARLQISMCQKKAKEHNERDRRIYANMFKKFAEQDAKEEANKAMGKKTSEGVTNEKGTDSQAMEEEKPEGHV
Turning to B1, the binding result is reported as “binds”.
